Test results taken from the supplement of paper PMC9938546.
Where a name gives a salt, the structure may show the parent alone. Some of the results follow. Plates or batches differ in their baseline, so values are only roughly comparable.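 HCT116-GFP, a KRAS-mutant, microsatellite-unstable human colorectal cancer line, constantly expresses green fluorescent protein; immune cells were from healthy donors. Cancer cell survival was tracked by live-cell imaging of green fluorescence, and activated immune cells by themselves reduced survival to roughly half.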

system: HCT116-GFP; assay: HCT116-GFP viability (GFP intensity) relative to untreated HCT116-GFP monoculture control, co-culture with activated PBMCs; higher = less cancer cell killing; conditions: culture: co-culture with anti-CD3/IL2 activated PBMCs 1:1; 10 µM; 72 h

SMILES | HCT116-GFP viability
CCC1NC(=O)c2cc(S(N)(=O)=O)c(Cl)cc2N1 (stereo not given) [Quinethazone] | 38.7%
Cc1cnc(C(=O)NCCc2ccc(S(=O)(=O)NC(=O)NC3CCCCC3)cc2)cn1 [Glipizide] | 45.5%
O=C1[C@H](CC[C@H](O)c2ccc(F)cc2)[C@@H](c2ccc(O)cc2)N1c1ccc(F)cc1 [Ezetimibe] | 43.9%
CC(C)(C)NC[C@H](O)COc1ccccc1C1CCCC1 [Penbutolol sulfate] | 46.1%
COc1ccc(C(=O)c2ccccc2O)c(O)c1 [Dioxybenzone] | 67%
Nc1nc2[nH]cc(CCc3ccc(C(=O)N[C@@H](CCC(=O)O)C(=O)O)cc3)c2c(=O)[nH]1 [Pemetrexed disodium] | 27.9%
COc1ccc(CN2CCN(C(c3ccc(F)cc3)c3ccc(F)cc3)CC2)c(OC)c1OC [Lomerizine hydrochloride] | 16.7%
Cc1cnc(C(=O)O)c[n+]1[O-] [Acipimox] | 51.3%
O=C(OCCOCCO)c1ccccc1Nc1cccc(C(F)(F)F)c1 [Etofenamate] | 48.5%
O=C(O)[C@H]1/C(=C/CO)O[C@@H]2CC(=O)N21 [Clavulanate potassium salt] | 46.8%
C#C[C@]1(O)CC[C@H]2[C@@H]3CCC4=C(CCC(=O)C4)[C@H]3CC[C@@]21C [Norethynodrel] | 31.3%
CC[N+](CC)(CC)CCOc1cccc(OCC[N+](CC)(CC)CC)c1OCC[N+](CC)(CC)CC [Gallamine triethiodide] | 38.4%
CCOC(=O)[N-]c1c[n+](N2CCOCC2)no1 [Molsidomine] | 44.9%
NS(=O)(=O)c1cc2c(cc1Cl)NC(CC1CCCC1)NS2(=O)=O (stereo not given) [Cyclopenthiazide] | 45.1%
CC(C)(C)NCC(O)c1cc(O)cc(O)c1 (stereo not given) [Terbutaline hemisulfate] | 49.3%
CN[C@@H]1[C@H](O[C@H]2[C@H](O[C@H]3[C@H](O)[C@@H](O)[C@H](NC(=N)N)[C@@H](O)[C@@H]3NC(=N)N)O[C@@H](C)[C@]2(O)CO)O[C@@H](CO)[C@H](O)[C@H]1O [Dihydrostreptomycin sulfate] | 54.5%
NCc1ccc(S(N)(=O)=O)cc1 [Mafenide hydrochloride] | 39.7%
CCc1oc2ccccc2c1C(=O)c1cc(Br)c(O)c(Br)c1 [Benzbromarone] | 34.4%
CC/C(=C(\c1ccccc1)c1ccc(OCCN(C)C)cc1)c1ccccc1 [Tamoxifen citrate] | 56.3%
CCCCC[C@H](O)/C=C/[C@H]1[C@H](O)CC(=O)[C@@H]1CCCCCCC(=O)O [Alprostadil] | 48.9%
CCN1CCC[C@H]1CNC(=O)c1c(O)c(Cl)cc(Cl)c1OC [Raclopride] | 46.7%
CCOc1ccc(NC(C)=O)cc1 [Phenacetin] | 32.8%
CN1CCC[C@@H]1CCO[C@](C)(c1ccccc1)c1ccc(Cl)cc1 [Clemastine fumarate] | 56.9%
COc1cc2ncnc(Nc3ccc(F)c(Cl)c3)c2cc1OCCCN1CCOCC1 [Gefitinib] | 49.4%
CC(C(=O)O)c1ccc(C(=O)c2cccs2)cc1 (stereo not given) [Suprofen] | 58.7%

SMILES | HCT116-GFP viability
Brc1c(NC2=NCCN2)ccc2nccnc12 [Brimonidine L-Tartrate] | 40.3%
CN(C)CCOC(=O)COc1ccc(Cl)cc1 [Meclofenoxate hydrochloride] | 71.8%
CCCc1nc(C(C)(C)O)c(C(=O)O)n1Cc1ccc(-c2ccccc2-c2nnn[nH]2)cc1 [Olmesartan] | 35.3%
OC(CCN1CCCCC1)(c1ccccc1)C1CCCCC1 (stereo not given) [Trihexyphenidyl-D,L Hydrochloride] | 74%
N=C(N)N/N=C/c1c(Cl)cccc1Cl [Guanabenz acetate] | 52.2%
CN(CCOc1ccc(CC2SC(=O)NC2=O)cc1)c1ccccn1 (stereo not given) [Rosiglitazone Hydrochloride] | 20.8%
CCC(=O)OCC(=O)[C@@]1(OC(=O)CC)[C@H](C)C[C@H]2[C@H]3[C@H]([C@@H](O)C[C@@]21C)[C@@]1(C)C=CC(=O)C=C1C[C@H]3Cl [Alclometasone dipropionate] | 82.3%
COc1ccc(C[C@@H]2c3cc(OC)c(OC)cc3CC[N@+]2(C)CCC(=O)OCCCCCOC(=O)CC[N@@+]2(C)CCc3cc(OC)c(OC)cc3[C@H]2Cc2ccc(OC)c(OC)c2)cc1OC [Cisatracurium besylate] | 41.2%
Nc1cc(-c2ccncc2)c[nH]c1=O [Amrinone] | 69.3%
CC(N)C12CC3CC(CC(C3)C1)C2 (stereo not given) [Rimantadine Hydrochloride] | 54.1%
CN(C)[C@@H]1C(O)=C(C(N)=O)C(=O)[C@@]2(O)C(O)=C3C(=O)c4c(O)ccc(Cl)c4[C@@H](O)[C@H]3C[C@@H]12 [Demeclocycline hydrochloride] | 72.1%
O=C1c2ccccc2S(=O)(=O)N1CCCCN1CCN(c2ncccn2)CC1 [Ipsapirone] | 33.7%
Cn1c([N+](=O)[O-])cnc1COC(N)=O [Ronidazole] | 61.4%
N[C@@H](C(=O)N[C@@H]1C(=O)N2C(C(=O)O)=C(Cl)CS[C@H]12)c1ccccc1 [Cefaclor hydrate] | 32.6%
COc1ccc(C(=O)NCc2ccc(OCCN(C)C)cc2)cc1OC [Itopride] | 67.2%
CC(Oc1ccccc1)C(=O)N[C@@H]1C(=O)N2[C@@H]1SC(C)(C)[C@@H]2C(=O)O (stereo not given in full) [Phenethicillin potassium salt] | 69.3%
CO/N=C(\C(=O)N[C@@H]1C(=O)N2C(C(=O)O)=C(C[N+]3(C)CCCC3)CS[C@H]12)c1csc(N)n1 [Cefepime hydrochloride] | 33.9%
CCOC(=O)[C@H](CCc1ccccc1)N[C@@H](C)C(=O)N1CCC[C@H]1C(=O)O [Enalapril maleate] | 40.1%
CC(Oc1c(Cl)cccc1Cl)C1=NCCN1 (stereo not given) [Lofexidine] | 25.7%
CC1=C(CC(=O)O)c2cc(F)ccc2/C1=C\c1ccc([S+](C)[O-])cc1 (stereo not given) [Sulindac] | 42.6%
CN(C)CCCO[C@@H]1[C@H]2OC(C)(C)O[C@H]2O[C@@H]1[C@H](O)CO [Amiprilose hydrochloride] | 68.6%
C[C@]12CC[C@@H]3c4ccc(O)cc4CC[C@H]3[C@@H]1C[C@@H](O)[C@@H]2O [Estriol] | 36.8%
CC[N+](CC)(CC)CCC(O)(c1ccccc1)C1CCCCC1 (stereo not given) [Tridihexethyl chloride] | 46.6%
CCc1cccc2c3c([nH]c12)C(CC)(CC(=O)O)OCC3 (stereo not given) [Etodolac] | 47.3%
Cc1noc(NS(=O)(=O)c2ccc(N)cc2)c1C [Sulfisoxazole] | 38.8%

SMILES | HCT116-GFP viability
C=CC1=C(C(=O)O)N2C(=O)[C@@H](NC(=O)/C(=N\OCC(=O)O)c3csc(N)n3)[C@H]2SC1 [Cefixime] | 51.3%
OCCOCCN1CCN(C(c2ccccc2)c2ccc(Cl)cc2)CC1 (stereo not given) [Hydroxyzine dihydrochloride] | 38.2%
Cc1ccccc1N1C(=O)c2cc(S(N)(=O)=O)c(Cl)cc2NC1C (stereo not given) [Metolazone] | 37.6%
Cc1cc(-n2c(=O)[nH]c(=O)n(C)c2=O)ccc1Oc1ccc(SC(F)(F)F)cc1 [Toltrazuril] | 39.1%
COc1ccc2[nH]c([S+]([O-])Cc3ncc(C)c(OC)c3C)nc2c1 (stereo not given) [Omeprazole] | 56.2%
CC(=O)Nc1ccc(O)cc1 [Acetaminophen] | 60.9%
COc1cc(C(=O)NC2CCCNC2)cc(OC)c1OC (stereo not given) [Troxipide] | 48.6%
C[C@]12CC[C@@H]3c4ccc(O)cc4CC[C@H]3[C@@H]1CCC2=O [Estrone] | 68.4%
CC(=O)N(CC(C)C(=O)O)c1c(I)cc(I)c(N)c1I (stereo not given) [Iocetamic acid] | 78.7%
CN(C)[C@@H]1C(O)=C(C(N)=O)C(=O)[C@@]2(O)C(O)=C3C(=O)c4c(O)ccc(Cl)c4[C@@](C)(O)[C@H]3C[C@@H]12 [Chlortetracycline hydrochloride] | 35.1%
Cc1cccc(CN2CCN(C(c3ccccc3)c3ccc(Cl)cc3)CC2)c1 (stereo not given) [Meclozine dihydrochloride] | 65.6%
O=C(O)CCC(=O)Nc1ccc(S(=O)(=O)Nc2nccs2)cc1 [Succinylsulfathiazole] | 68.3%
COc1cnc(NS(=O)(=O)c2ccc(N)cc2)nc1 [Sulfameter] | 74%
CCCCC(C)(O)C/C=C/[C@H]1[C@H](O)CC(=O)[C@@H]1CCCCCCC(=O)OC (mixture of isomers) [Misoprostol] | 38.9%
CNCCC(Oc1ccccc1OC)c1ccccc1 (stereo not given) [Nisoxetine hydrochloride] | 83.4%
COc1ccccc1O [Guaiacol] | 26.2%
CCOC(=O)C1=C[C@]2(CC)CCCN3CCc4c(n1c1ccccc41)[C@@H]32 [Vinpocetine] | 76.1%
COc1ccc(-c2cc(=O)c3c(O)cc(O[C@@H]4O[C@H](CO[C@@H]5O[C@@H](C)[C@H](O)[C@@H](O)[C@H]5O)[C@@H](O)[C@H](O)[C@H]4O)cc3o2)cc1O [Diosmin] | 56.9%
CCCCCCCN(CC)CCCC(O)c1ccc(NS(C)(=O)=O)cc1 (stereo not given) [Ibutilide fumarate] | 79%
c1ccc2[nH]c(-c3cscn3)nc2c1 [Tiabendazole] | 48.1%
CC1CS(=O)(=O)CCN1/N=C/c1ccc([N+](=O)[O-])o1 (stereo not given) [Nifurtimox] | 25.4%
CN1CC2c3ccccc3Oc3ccc(Cl)cc3C2C1 (stereo not given) [Asenapine maleate] | 63.6%
OCc1cc(C(O)CNCCCCCCOCCCCc2ccccc2)ccc1O (stereo not given) [Salmeterol] | 80.5%
O=C(O)Cc1sc(-c2ccccc2)nc1-c1ccc(Cl)cc1 [Fentiazac] | 52.9%
CC(=O)OCC(=O)[C@@]12N=C(C)O[C@@H]1C[C@H]1[C@@H]3CCC4=CC(=O)C=C[C@]4(C)[C@H]3[C@@H](O)C[C@@]12C [Deflazacort] | 82.5%

18 structures out of the list, sorted by SMILES length, smallest number first:
SMILES | HCT116-GFP viability
CCOc1ccc(NC(C)=O)cc1 [Phenacetin] | 32.8%
Cc1cnc(C(=O)O)c[n+]1[O-] [Acipimox] | 51.3%
CNCCC(Oc1ccccc1OC)c1ccccc1 (stereo not given) [Nisoxetine hydrochloride] | 83.4%
CC(C)(C)NCC(O)c1cc(O)cc(O)c1 (stereo not given) [Terbutaline hemisulfate] | 49.3%
CN1CC2c3ccccc3Oc3ccc(Cl)cc3C2C1 (stereo not given) [Asenapine maleate] | 63.6%
CCOC(=O)[N-]c1c[n+](N2CCOCC2)no1 [Molsidomine] | 44.9%
CC(C)(C)NC[C@H](O)COc1ccccc1C1CCCC1 [Penbutolol sulfate] | 46.1%
CCC1NC(=O)c2cc(S(N)(=O)=O)c(Cl)cc2N1 (stereo not given) [Quinethazone] | 38.7%
CC[N+](CC)(CC)CCC(O)(c1ccccc1)C1CCCCC1 (stereo not given) [Tridihexethyl chloride] | 46.6%
CN(CCOc1ccc(CC2SC(=O)NC2=O)cc1)c1ccccn1 (stereo not given) [Rosiglitazone Hydrochloride] | 20.8%
CN1CCC[C@@H]1CCO[C@](C)(c1ccccc1)c1ccc(Cl)cc1 [Clemastine fumarate] | 56.9%
COc1ccc(CN2CCN(C(c3ccc(F)cc3)c3ccc(F)cc3)CC2)c(OC)c1OC [Lomerizine hydrochloride] | 16.7%
CN(C)CCCO[C@@H]1[C@H]2OC(C)(C)O[C@H]2O[C@@H]1[C@H](O)CO [Amiprilose hydrochloride] | 68.6%
C#C[C@]1(O)CC[C@H]2[C@@H]3CCC4=C(CCC(=O)C4)[C@H]3CC[C@@]21C [Norethynodrel] | 31.3%
C[C@]12CC[C@@H]3c4ccc(O)cc4CC[C@H]3[C@@H]1C[C@@H](O)[C@@H]2O [Estriol] | 36.8%
Nc1nc2[nH]cc(CCc3ccc(C(=O)N[C@@H](CCC(=O)O)C(=O)O)cc3)c2c(=O)[nH]1 [Pemetrexed disodium] | 27.9%
CO/N=C(\C(=O)N[C@@H]1C(=O)N2C(C(=O)O)=C(C[N+]3(C)CCCC3)CS[C@H]12)c1csc(N)n1 [Cefepime hydrochloride] | 33.9%
COc1ccc(C[C@@H]2c3cc(OC)c(OC)cc3CC[N@+]2(C)CCC(=O)OCCCCCOC(=O)CC[N@@+]2(C)CCc3cc(OC)c(OC)cc3[C@H]2Cc2ccc(OC)c(OC)c2)cc1OC [Cisatracurium besylate] | 41.2%
